Test results taken from article PMC3382131.
These are yes or no findings as the source states them, for the method shown. Binding seen in cells or lysates may run through a third protein. Some entries that bind do so weakly or less than the wild type.

Amino acid sequences for entries named in this document (tags omitted). A change or cut given only in a name is not applied to a line headed by its entry.
UniProt P20263: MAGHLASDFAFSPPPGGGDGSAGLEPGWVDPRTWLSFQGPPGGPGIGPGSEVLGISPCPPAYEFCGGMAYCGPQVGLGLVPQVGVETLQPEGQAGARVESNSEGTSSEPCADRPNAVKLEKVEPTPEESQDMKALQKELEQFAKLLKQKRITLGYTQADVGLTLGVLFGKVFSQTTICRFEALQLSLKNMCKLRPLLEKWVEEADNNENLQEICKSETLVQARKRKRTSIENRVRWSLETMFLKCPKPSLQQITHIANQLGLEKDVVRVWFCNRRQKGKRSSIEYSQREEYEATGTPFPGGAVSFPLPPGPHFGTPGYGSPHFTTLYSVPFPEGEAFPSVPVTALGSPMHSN
UniProt P48432: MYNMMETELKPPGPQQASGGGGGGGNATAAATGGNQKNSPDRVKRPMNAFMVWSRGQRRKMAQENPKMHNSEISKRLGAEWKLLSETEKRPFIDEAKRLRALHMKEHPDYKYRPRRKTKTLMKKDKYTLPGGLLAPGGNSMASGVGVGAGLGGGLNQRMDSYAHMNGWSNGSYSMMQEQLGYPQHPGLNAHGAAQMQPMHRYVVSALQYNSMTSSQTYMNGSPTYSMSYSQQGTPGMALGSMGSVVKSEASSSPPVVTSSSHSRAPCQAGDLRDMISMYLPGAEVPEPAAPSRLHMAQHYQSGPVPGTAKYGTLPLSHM

Columns and labels:
Oct4 K118R (mouse) = Oct4 K118R (mouse) (UniProt P20263); test: co-IP; NIH3T3 cells cotransfected with combinations of Oct4/Oct4 K118R, Sox2/Sox2 K247R, HA-Sumo1 and HA-Ubc9; lysed 48 h later in IP buffer (50 mM Tris-HCl pH 8.0, 150 mM NaCl, 1 mM EDTA, 1% Nonidet P-40, 10% glycerol, 50 mM N-ethylmaleimide); precipitated with anti-Oct4 or anti-Sox2 antibody overnight at 4°C and protein A/G beads; western blot with anti-Sox2 and anti-Oct4
Flag-Tagged Oct4 (mouse) = Flag-Tagged Oct4 (mouse) (UniProt P20263); test: as above

| binding (Oct4 K118R (mouse)) | binding (Flag-Tagged Oct4 (mouse)) | Substance |
| --- | --- | --- |
| binds |  | Myc-Sox2 (from UniProt P48432 1-319) |
|  | binds | Sox2 K247R (from UniProt P48432 1-319) |
